# Laboratory results taken from PubChem BioAssay AID1487 (National Center for Advancing Translational Sciences (NCATS), 2009).
# This is one part of the list. These are further read-outs of the screen, such as a control signal, another cell line or another target. No call is given for them. Most of these compounds were active or inconclusive in the main read-out, so they are no random draw. Words in brackets tell the shape of the fitted curve; partial curves, single points and poor fits give uncertain potencies.
# Experiment: qHTS Assay for Modulators of Lamin A Splicing
# Settings: HeLa LMNA splicing GFP/RFP minigene ratio, 48 h
# How it was run: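 S3 HeLa cells stably expressing lamin A-EGFP splicing minigene plus DsRed2, 600 cells/well, 48 h compound exposure at 37C. Laser-scanning cytometry; analysed as GFP (500-530 nm)/RFP (575-640 nm) total intensity ratio; 0.5% DMSO vehicle.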
# [1] = measured here: GFP splicing reporter channel
# [2] = measured here: RFP viability control channel
SMILES,AC50 [1],AC50 [2]
CCCCNc1nc(=S)n(-c2ccccc2)c(C)c1C(C)=O,"0.708 µM [falling, full curve, poor fit]",
COc1ccc(-c2ccc(-c3nnn(CC(C)=O)n3)cc2)cc1,"11.2 µM [rising, partial curve]","20 µM [rising, partial curve]"
Cc1ccc(-c2cc(C(=O)N(Cc3ccc(C(C)(C)C)cc3)Cc3ccco3)no2)cc1,"3.98 µM [falling, partial curve, poor fit]","5.01 µM [falling, partial curve]"
Cc1ccnc(Nc2nc(-c3c(C)nc4sccn34)cs2)c1,"11.2 µM [rising, partial curve]","10 µM [rising, partial curve]"
Cc1cc(NS(=O)(=O)c2ccccc2)c(C)c(Cl)c1O,"1.58 µM [rising, single point]",
O=C(OCc1ccccc1)c1cccc(-c2nnn(Cc3ccccc3)n2)c1,,"35.5 µM [rising, single point]"
O=C(c1ccccc1F)N1CCN(c2ccc([N+](=O)[O-])c3ncccc23)CC1,"11.2 µM [rising, partial curve, poor fit]","20 µM [rising, single point]"
Cc1ccc(NS(=O)(=O)c2cc3[nH]c(=O)c(=O)[nH]c3cc2C)cc1Cl,"0.0224 µM [falling, full curve, poor fit]","0.02 µM [falling, full curve, poor fit]"
COc1cc(CN2CCN(Cc3ccc(SC)cc3)CC2)cc(OC)c1O,"3.16 µM [rising, single point]",
O=C(C1CC1)N1CCc2cc(Br)cc(S(=O)(=O)N3CCN(c4ccccn4)CC3)c21,,"11.2 µM [rising, partial curve, poor fit]"
Cc1ccc(C2(c3ccc(C)cc3)CC2C(=O)Nc2ccc([N+](=O)[O-])cc2O)cc1 (configuration not stated),"2.51 µM [falling, single point]","2 µM [falling, partial curve, poor fit]"
CCc1ccc(NC(=O)c2ccc(F)c(S(=O)(=O)NCc3ccc(Cl)c(Cl)c3)c2)cc1,"0.631 µM [falling, full curve]","2 µM [falling, full curve, poor fit]"
CCOc1ccccc1CNC(=O)c1ccc2c(c1)nc1n2CCCCC1,,"12.6 µM [rising, partial curve]"
COc1ccccc1-c1c(C(F)(F)F)oc2cc(OC(=O)c3cccc([N+](=O)[O-])c3C)ccc2c1=O,"35.5 µM [falling, single point]","35.5 µM [falling, single point]"

# Already shown: an excerpt of the list.
SMILES,AC50 [1],AC50 [2]
COc1cc(CN2CCN(Cc3ccc(SC)cc3)CC2)cc(OC)c1O,"3.16 µM [rising, single point]",
O=C(C1CC1)N1CCc2cc(Br)cc(S(=O)(=O)N3CCN(c4ccccn4)CC3)c21,,"11.2 µM [rising, partial curve, poor fit]"
